Experimental data reported in paper PMC10702442, “Arabidopsis thaliana Phytocystatin 6 Forms Functional Oligomer and Amyloid Fibril States” (Biochemistry, 2023).
These are yes or no findings as the source states them, for the method shown.

Legend:
[1] = biological target: AtCYT6-CTD, the isolated C-terminal cystatin domain of AtCYT6 (Arabidopsis thaliana) (UniProt Q8H0X6); test: SEC; Superdex 75, 500 uL of protein at up to 2 mg/mL, 20 mM Tris pH 7.5, 50 mM NaCl, nonreducing, room temperature; both purified
[2] = biological target: AtCYT6-CTD, the isolated C-terminal cystatin domain of AtCYT6 (Arabidopsis thaliana) (UniProt Q8H0X6); test: cross-linking; 0.175% (w/v) glutaraldehyde, protein at 0.3 mg/mL in 20 mM citric acid pH 5.5, 100 mM NaCl, room temperature, 1, 5 and 10 min, read by SDS-PAGE; both purified

B1: AtCYT6-CTD, the isolated C-terminal cystatin domain of AtCYT6 (domain or fragment, UniProt Q8H0X6 141-234)
chain: GEHESGWREVPGDDPEVKHVAEQAVKTIQQRSNSLFPYELLEVVHAKAEVTGEAAKYNMLLKLKRGEKEEKFKVEVHKNHEGALHLNHAEQHHD
In the case of B1, the binding [1] is reported as “no binding (tested: 2 mg/mL)” and the binding [2] is reported as “no binding (tested: 0.3 mg/mL)”.
